Measured values reported in patent publication US7776833B2, “Use of cyclic bioisosters of purine system derivatives for treating diseases produced by disorders of niterergic and dopaminergic systems” (priority 2003, dated 2010).

How the values were obtained:
[1] = system: physical dependence from morphine (morphine abstinence); experiment: Morphine abstinence syndrome, signs scored in the open field test; format: in vivo, Wistar rats; settings: Control − morphine, 36 h after last morphine injection
Method: Thirty six hours after the last injection selected motor and autonomice parameters which are specific symptoms of abstinence were monitored in the <<open field>> test (an arena with a diameter of 120 cm and wall height of 40 cm).
Med., 2002, V.29, p.1-6.). The observable signs were recorded quantitatively (if it was possible) with further assignment of an index to each sign (depending on the specific feature of the sign) and calculation of the sum of scores. The expression of the abstinence syndrome was presented as a sum of scores. The results were processed using nonparametric statistical analysis based on the Mann-Whitney test.

[2] = system: nitrites and nitrates (NOx-); experiment: Measurement of nitrates/nitrites (NOx-) in brain regions after the morphine abstinence experiment; format: in vivo, Wistar rats; settings: Group No. 2 (morphine)
Method: After the above experiments the rat brains were isolated and immediately placed in the ice cold 0.9% solution of sodium chloride. After cooling the following structures were isolated from the brain: cerebral cortex, hippocampus, mesencephalon, striatum, brainstem, hypothalamus and cerebellum. The isolated tissue was homogenized in a Potter S homogenizer for 3 minutes at 1500 rpm in 4-5 volumes of 20 mM HEPES (pH 7.5) at 4° C. […]
To estimate the intensity of metabolism of nitric oxide in rats, quantitative determination of stable metabolites of nitrogen oxide-nitrites and nitrates (NOx-) was performed using a fluorometric method by fluorescence of naphthotriazole, a product of reaction of 2,3- diaminonaphthalene (DAN) and nitrite in an acidic medium (Misko T. R., Schilling R. J., Salvemini D. et al. A fluorometric assay for the measurement of nitrite in biological samples. Anal. Biochem., 1993, V. 214, p.11-16) with modifications (Lei B., Adachi N., Nagaro T., Arai T. Measurement of total nitric oxide metabolite (NO (x) (-)) levels in vivo. […]
The supernatants of brain deproteinized at 100° C. were placed in a nitrite recovery system containing 0.125 unit/ml of nitrate reductase, 25 μM NADPH and 25 μM FAD prepared in 20 mM Tris-HCl buffer pH 7.6 and incubated for 30 minutes at 37° C. […] For stabilization of fluorescence of the formed naphthotriazole, 280 mM NaOH was added. […]

CN1CC[C@]23c4c5ccc(O)c4O[C@H]2[C@@H](O)C=C[C@H]3[C@H]1C5.Cl [morphine, morphine hydrochloride, reference compound]
Authentic differences (ξ-square criterion) in appearance of signs of abstinence: Mastication [1]: 0.0308 | Nitrites, brainstem [2]: 7.63 ± 0.96 nmol/mg of protein | Nitrites, striatum [2]: 4.92 ± 0.43 nmol/mg of protein
